This passage reports binding results from paper PMC10808074, “Regulation of micro- and small-exon retention and other splicing processes by GRP20 for flower development”.

The assay addresses T1, JMJ16 in pXY106 (YFPc), BiFC positive control (UniProt C0SUT9).
T1 sequence: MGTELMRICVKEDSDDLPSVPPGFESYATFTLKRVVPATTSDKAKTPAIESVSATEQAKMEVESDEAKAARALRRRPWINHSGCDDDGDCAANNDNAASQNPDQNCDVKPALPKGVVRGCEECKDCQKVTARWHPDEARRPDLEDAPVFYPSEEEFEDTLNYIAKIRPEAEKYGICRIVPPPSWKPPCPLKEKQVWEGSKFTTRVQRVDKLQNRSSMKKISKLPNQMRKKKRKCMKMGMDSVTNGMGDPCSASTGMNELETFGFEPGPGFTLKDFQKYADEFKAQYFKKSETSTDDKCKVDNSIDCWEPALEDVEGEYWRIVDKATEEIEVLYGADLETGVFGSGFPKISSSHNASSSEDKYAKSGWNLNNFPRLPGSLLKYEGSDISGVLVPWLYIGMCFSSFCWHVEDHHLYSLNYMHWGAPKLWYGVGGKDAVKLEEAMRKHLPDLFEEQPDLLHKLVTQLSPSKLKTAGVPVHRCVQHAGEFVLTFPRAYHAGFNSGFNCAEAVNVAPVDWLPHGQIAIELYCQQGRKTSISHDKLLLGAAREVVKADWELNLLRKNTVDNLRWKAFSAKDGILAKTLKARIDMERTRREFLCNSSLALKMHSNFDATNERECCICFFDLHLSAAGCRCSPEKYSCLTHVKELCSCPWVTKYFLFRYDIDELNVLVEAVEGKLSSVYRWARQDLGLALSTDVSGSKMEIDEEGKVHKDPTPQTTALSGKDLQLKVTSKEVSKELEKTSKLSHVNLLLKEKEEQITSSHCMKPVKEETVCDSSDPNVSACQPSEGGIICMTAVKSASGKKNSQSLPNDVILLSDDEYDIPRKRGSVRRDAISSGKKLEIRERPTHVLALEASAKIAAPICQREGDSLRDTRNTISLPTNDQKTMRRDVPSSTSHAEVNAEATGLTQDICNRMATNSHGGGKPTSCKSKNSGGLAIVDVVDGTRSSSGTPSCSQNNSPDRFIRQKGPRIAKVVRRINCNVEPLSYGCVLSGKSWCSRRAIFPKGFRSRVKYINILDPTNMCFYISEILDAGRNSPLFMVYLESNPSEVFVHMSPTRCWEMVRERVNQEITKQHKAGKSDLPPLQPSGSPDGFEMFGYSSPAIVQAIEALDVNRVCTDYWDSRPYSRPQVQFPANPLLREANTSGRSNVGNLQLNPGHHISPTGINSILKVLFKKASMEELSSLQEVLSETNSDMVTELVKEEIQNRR
Put plainly: split reporter; BiFC (YFPn/YFPc) in N. benthamiana leaves, confocal microscopy.

No constants are given. Whether binding was seen depends on the method and setting. Binding seen in cells or lysates may run through a third protein. Some entries that bind do so weakly or less than the wild type.

B1: MMD1 in pXY104 (YFPn), BiFC positive control (protein, UniProt Q7X6Y7 1-704)
chain: MPVPIIETCRKRKRKPKVYNLQRFGEDGFPIQRNGAFRDQIRVFLRDCAEIEDYDIRGMTVWCTLLSHETKSSLIPLYIVEENVKHSSEPYCDHCRCTGWSNHFVSKRKYHFIIPIDTEWSLPLEDDAFDSQSHVLHGLIHCNGFGHLVCVNGMESGSKYLCGREIVDFWDRLCNSLGARMITVEDLAKKRSVELRLLYGVAYGHSWFGRWGYKFCCGSFGVTKNEYENAIEALGSLEIDQIEFDFGELRQSKEINQVFRYYREMSEGHLKTFRDLLRFMLIIKSHASPQKLLPVTPPLLTDSPHQKRSSRLLLKKSDVADNDKSPKYRNYSTVAANLGSRWPVRRLIFAAEVIVESLKEMKALKQNGMTRQDVRDSARLHIGDTGLLDYVLKSMNNVVVGDVLVRRYVDPITRILHYTIQDLDDAVKAKEPKKKEAVVLEEITPLRILTPLKPGADVYGDLLLLYTNVLLNYPESELVRSATQAILDSKHFIKEWPIWDNNDTVLQFLCRINPSLVDVRSEQTTELPPGELVTVPLQATVYDLKQAIEETFRDTYCILSNFVVTEIDEVEEDMSLIGSCSALTVRGHGIDLESKLKCQGGCDTWMVKCICRARDDDGERMISCDVCEVWQHTRCCGIDDSDTLPPLFVCSNCCEEFAEQQRKVLQPKYEFPSSENVFLLESADDFFGDQRCLGMIFPEENYLL
In the case of B1, the binding entry is “binds”.
